Binding signal (2-AP intensity change (CPS)) data for one sequence are collected here from PMC4357730.

Sequences of proteins named here, by UniProt entry; tags and fusion partners are left off.
UniProt Q13569, whole entry R275A: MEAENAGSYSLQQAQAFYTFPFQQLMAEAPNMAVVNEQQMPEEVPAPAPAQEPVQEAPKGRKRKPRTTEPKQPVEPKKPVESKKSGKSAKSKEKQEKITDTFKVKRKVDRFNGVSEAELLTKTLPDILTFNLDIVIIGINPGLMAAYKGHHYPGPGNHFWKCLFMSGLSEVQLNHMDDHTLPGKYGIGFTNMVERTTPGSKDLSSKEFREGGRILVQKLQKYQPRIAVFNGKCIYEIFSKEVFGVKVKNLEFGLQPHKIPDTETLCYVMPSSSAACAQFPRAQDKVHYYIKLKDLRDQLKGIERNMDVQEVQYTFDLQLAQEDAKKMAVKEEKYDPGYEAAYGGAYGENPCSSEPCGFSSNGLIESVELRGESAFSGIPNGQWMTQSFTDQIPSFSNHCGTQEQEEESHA

For the series, the target named is hTDG-R275A (human) (UniProt Q13569). Kind of series: 2-AP fluorescence base flipping. The settings on record: 5 uM protein, 170 nM DNA, no substantial increase (less flipping, not shown as loss of binding); 2-AP at position 10 (written A); dUF at position 11 (written U); AFM: 25 mM HEPES pH 7.5, 25 mM Na acetate, 10 mM Mg acetate, RT; 2-AP hTDG: 20 mM HEPES pH 7.0, 0.2 mM EDTA, 2.5 mM MgCl2, 100 mM NaCl, 25 C; recombinant protein; residues 1-410; label: 2-AP.

Whether high values mean tight binding is not given here for every scale.

For “ATGCATGCCAUGAGTCTAGAGG / CCTCTAGACTCGTGGCATGCAT [2-AP G:UF (G/J)]”, the binding signal (2-AP intensity change (CPS)) worked out at 9370.
